Results from the supplement of paper PMC5355238.
Where a name gives a salt, the structure may show the parent alone. This is one part of the list. Most entries show no effect beyond the scatter of the controls.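 Reh, a human leukemia cell line, is read out by flow cytometry as the median γH2AX antibody signal in S-phase cells; the score counts standard deviations from the median difference of each paired plate set. Scores above 2.5 were candidate hits; scores below -2 mark compounds lowering MK1775-induced damage.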

Tested on: Reh
Test: Z' of S-phase gammaH2AX difference (drug + MK1775 minus drug alone) (Z-score); higher = stronger synergistic S-phase DNA damage with MK1775
Details: MK1775 concentration 400 nM; first compound 10 µM; 4 h

SMILES | Z' of S-phase gammaH2AX difference (Z-score)
CCCc1c(-c2ccc(O)cc2)nn(-c2ccc(O)cc2)c1-c1ccc(O)cc1 [1,3,5-tris(4-hydroxyphenyl)-4-propyl-1H-pyrazole] + C=CCn1c(=O)c2cnc(Nc3ccc(N4CCN(C)CC4)cc3)nc2n1-c1cccc(C(C)(C)O)n1 [MK1775] | inactive: 0.697
C=CCc1cccc(/C=N/NC(=O)CN2CCN(Cc3ccccc3)CC2)c1O + C=CCn1c(=O)c2cnc(Nc3ccc(N4CCN(C)CC4)cc3)nc2n1-c1cccc(C(C)(C)O)n1 [MK1775] | inactive: 2.19
O=C(O)C1CCCNC1 (configuration not stated) [(?)-Nipecotic acid] + C=CCn1c(=O)c2cnc(Nc3ccc(N4CCN(C)CC4)cc3)nc2n1-c1cccc(C(C)(C)O)n1 [MK1775] | inactive: 0.12
CC[N+](CC)(CC)CCOc1ccc(/C=C/c2ccccc2)cc1 + C=CCn1c(=O)c2cnc(Nc3ccc(N4CCN(C)CC4)cc3)nc2n1-c1cccc(C(C)(C)O)n1 [MK1775] | inactive: 0.247
CC(Oc1ccc(Oc2cnc3ccc(Cl)cc3n2)cc1)C(=O)O (configuration not stated) + C=CCn1c(=O)c2cnc(Nc3ccc(N4CCN(C)CC4)cc3)nc2n1-c1cccc(C(C)(C)O)n1 [MK1775] | inactive: 2.45
CN(C)C(=O)C(CCN1CCC(O)(c2ccc(Cl)cc2)CC1)(c1ccccc1)c1ccccc1 [Loperamide hydrochloride] + C=CCn1c(=O)c2cnc(Nc3ccc(N4CCN(C)CC4)cc3)nc2n1-c1cccc(C(C)(C)O)n1 [MK1775] | inactive: -1.1
N=C(N)NCCSSCCNC(=N)N [Guanidinoethyl disulfide dihydrobromide] + C=CCn1c(=O)c2cnc(Nc3ccc(N4CCN(C)CC4)cc3)nc2n1-c1cccc(C(C)(C)O)n1 [MK1775] | inactive: 0.381
COc1cc2c(N3CCN(C(=O)Nc4ccc(OC(C)C)cc4)CC3)ncnc2cc1OCCCN1CCCCC1 [Tandutinib (MLN518)] + C=CCn1c(=O)c2cnc(Nc3ccc(N4CCN(C)CC4)cc3)nc2n1-c1cccc(C(C)(C)O)n1 [MK1775] | inactive: 0.131
Cc1cc(O)c2c(c1)C(=O)c1cccc(O)c1C2=O [Chrysophanic acid (Chrysophanol)] + C=CCn1c(=O)c2cnc(Nc3ccc(N4CCN(C)CC4)cc3)nc2n1-c1cccc(C(C)(C)O)n1 [MK1775] | inactive: -0.254
NC(N)=NC(N)=Nc1cccc(Cl)c1 [1-(m-Chlorophenyl)-biguanide hydrochloride] + C=CCn1c(=O)c2cnc(Nc3ccc(N4CCN(C)CC4)cc3)nc2n1-c1cccc(C(C)(C)O)n1 [MK1775] | inactive: 0.882
COc1cc(C(=O)NC(=S)Nc2cccc(NC(=O)c3ccccc3)c2)cc(OC)c1OC + C=CCn1c(=O)c2cnc(Nc3ccc(N4CCN(C)CC4)cc3)nc2n1-c1cccc(C(C)(C)O)n1 [MK1775] | inactive: -0.125
C(=C\c1ccccc1)/CN1CCN(C(c2ccccc2)c2ccccc2)CC1 [Cinnarizine] + C=CCn1c(=O)c2cnc(Nc3ccc(N4CCN(C)CC4)cc3)nc2n1-c1cccc(C(C)(C)O)n1 [MK1775] | inactive: 0.531
C[C@]1(O)C[C@@H](c2nc(-c3ccc4ccc(-c5ccccc5)nc4c3)c3c(N)nccn32)C1 [Linsitinib (OSI-906)] + C=CCn1c(=O)c2cnc(Nc3ccc(N4CCN(C)CC4)cc3)nc2n1-c1cccc(C(C)(C)O)n1 [MK1775] | inactive: -0.625
O=C(C1CCCCC1)N1CC(=O)N2CCc3ccccc3C2C1 (configuration not stated) [Praziquantel] + C=CCn1c(=O)c2cnc(Nc3ccc(N4CCN(C)CC4)cc3)nc2n1-c1cccc(C(C)(C)O)n1 [MK1775] | inactive: -0.946
O=C(O)c1cc(=O)cc(C(=O)O)[nH]1 [Chelidamic acid] + C=CCn1c(=O)c2cnc(Nc3ccc(N4CCN(C)CC4)cc3)nc2n1-c1cccc(C(C)(C)O)n1 [MK1775] | inactive: -0.214
CN1CCc2c(cc(O)c(O)c2Cl)C(c2cccc(Cl)c2)C1 (configuration not stated) + C=CCn1c(=O)c2cnc(Nc3ccc(N4CCN(C)CC4)cc3)nc2n1-c1cccc(C(C)(C)O)n1 [MK1775] | inactive: -1.2
CNC(=O)c1cc(Oc2ccc(NC(=O)Nc3cc(C(C)(C)C)nn3-c3ccc4ncccc4c3)c(F)c2)ccn1 [DCC-2036 (Rebastinib)] + C=CCn1c(=O)c2cnc(Nc3ccc(N4CCN(C)CC4)cc3)nc2n1-c1cccc(C(C)(C)O)n1 [MK1775] | inactive: -0.811
COc1ccc2c(c1)c(CC(=O)O)c(C)n2C(=O)c1ccc(Cl)cc1 [Indomethacin] + C=CCn1c(=O)c2cnc(Nc3ccc(N4CCN(C)CC4)cc3)nc2n1-c1cccc(C(C)(C)O)n1 [MK1775] | inactive: 0.153
Nc1nc2ccc(OC(F)(F)F)cc2s1 [Riluzole] + C=CCn1c(=O)c2cnc(Nc3ccc(N4CCN(C)CC4)cc3)nc2n1-c1cccc(C(C)(C)O)n1 [MK1775] | inactive: 0.658

SMILES | Z' of S-phase gammaH2AX difference (Z-score)
CC(C)C[C@H](NC(=O)[C@H](O)[C@H](N)Cc1ccccc1)C(=O)O [Epibestatin hydrochloride] + C=CCn1c(=O)c2cnc(Nc3ccc(N4CCN(C)CC4)cc3)nc2n1-c1cccc(C(C)(C)O)n1 [MK1775] | inactive: 0.104
CNC(=O)c1cc(Oc2ccc(NC(=O)Nc3ccc(Cl)c(C(F)(F)F)c3)c(F)c2)ccn1 [Regorafenib (BAY 73-4506)] + C=CCn1c(=O)c2cnc(Nc3ccc(N4CCN(C)CC4)cc3)nc2n1-c1cccc(C(C)(C)O)n1 [MK1775] | inactive: -0.481
C/C=C1\C(=O)C[C@H]2[C@@H]3CCC4=CC(=O)CC[C@]4(C)[C@H]3CC[C@]12C [(Z)-Gugglesterone] + C=CCn1c(=O)c2cnc(Nc3ccc(N4CCN(C)CC4)cc3)nc2n1-c1cccc(C(C)(C)O)n1 [MK1775] | inactive: 0.61
COc1ccc2c(c1OC)C(=O)O[C@@H]2[C@H]1c2c(cc3c(c2OC)OCO3)CCN1C [Noscapine hydrchloride] + C=CCn1c(=O)c2cnc(Nc3ccc(N4CCN(C)CC4)cc3)nc2n1-c1cccc(C(C)(C)O)n1 [MK1775] | inactive: -0.272
CCCCCCCCCCCCCCCC(=O)OC(CC(=O)O)C[N+](C)(C)C (racemic) [Palmitoyl-DL-Carnitine chloride] + C=CCn1c(=O)c2cnc(Nc3ccc(N4CCN(C)CC4)cc3)nc2n1-c1cccc(C(C)(C)O)n1 [MK1775] | inactive: -0.471
O=C(Nc1ccccc1-c1cn2c(CN3CCNCC3)csc2n1)c1cnc2ccccc2n1 + C=CCn1c(=O)c2cnc(Nc3ccc(N4CCN(C)CC4)cc3)nc2n1-c1cccc(C(C)(C)O)n1 [MK1775] | inactive: -0.759
CC1(NC(=O)CBr)CCC(C(C)(C)NCC(O)COc2cccc3[nH]ccc23)CC1 (configuration not stated) [(?)-Pindobind] + C=CCn1c(=O)c2cnc(Nc3ccc(N4CCN(C)CC4)cc3)nc2n1-c1cccc(C(C)(C)O)n1 [MK1775] | inactive: 0.286
O=C(CCc1ccc(O)cc1)c1c(O)cc(O)cc1O [Phloretin] + C=CCn1c(=O)c2cnc(Nc3ccc(N4CCN(C)CC4)cc3)nc2n1-c1cccc(C(C)(C)O)n1 [MK1775] | inactive: -1.66
O=C(CCc1ccc(O)cc1)c1c(O)cc(O)cc1O [Phloretin (Dihydronaringenin)] + C=CCn1c(=O)c2cnc(Nc3ccc(N4CCN(C)CC4)cc3)nc2n1-c1cccc(C(C)(C)O)n1 [MK1775] | inactive: -0.224
CN1CCN(CCCN2c3ccccc3Sc3ccc(C(F)(F)F)cc32)CC1 [Trifluoperazine dihydrochloride] + C=CCn1c(=O)c2cnc(Nc3ccc(N4CCN(C)CC4)cc3)nc2n1-c1cccc(C(C)(C)O)n1 [MK1775] | inactive: -0.267
CNC[C@H](O)c1ccc(O)c(O)c1 [(-)-Epinephrine bitartrate] + C=CCn1c(=O)c2cnc(Nc3ccc(N4CCN(C)CC4)cc3)nc2n1-c1cccc(C(C)(C)O)n1 [MK1775] | inactive: 0.114
CCc1cc(Nc2nccc(-c3c(-c4ccc(OC)c(C(=O)Nc5c(F)cccc5F)c4)nc4ccccn34)n2)c(OC)cc1N1CCC(N2CCN(S(C)(=O)=O)CC2)CC1 + C=CCn1c(=O)c2cnc(Nc3ccc(N4CCN(C)CC4)cc3)nc2n1-c1cccc(C(C)(C)O)n1 [MK1775] | inactive: 0.254
Nc1ccn([C@H]2CC[C@@H](CO)O2)c(=O)n1 [2',3'-dideoxycytidine] + C=CCn1c(=O)c2cnc(Nc3ccc(N4CCN(C)CC4)cc3)nc2n1-c1cccc(C(C)(C)O)n1 [MK1775] | inactive: -0.323
CCCCCCCCCCCCCCC[C@H](O)[C@H](N)CO (racemic) [DL-erythro-Dihydrosphingosine] + C=CCn1c(=O)c2cnc(Nc3ccc(N4CCN(C)CC4)cc3)nc2n1-c1cccc(C(C)(C)O)n1 [MK1775] | inactive: -0.751
CN(C)CCOC(C)(c1ccccc1)c1ccccn1 (configuration not stated) [Doxylamine succinate] + C=CCn1c(=O)c2cnc(Nc3ccc(N4CCN(C)CC4)cc3)nc2n1-c1cccc(C(C)(C)O)n1 [MK1775] | inactive: 0.838
COc1cccc(-c2cc(=O)c3ccccc3o2)c1N + C=CCn1c(=O)c2cnc(Nc3ccc(N4CCN(C)CC4)cc3)nc2n1-c1cccc(C(C)(C)O)n1 [MK1775] | inactive: -0.116
CC(C)(C#N)c1cc(Cn2cncn2)cc(C(C)(C)C#N)c1 [Anastrozole] + C=CCn1c(=O)c2cnc(Nc3ccc(N4CCN(C)CC4)cc3)nc2n1-c1cccc(C(C)(C)O)n1 [MK1775] | inactive: 0.147
COc1cc2nccc(Oc3ccc(NC(=O)Nc4cc(C)on4)c(Cl)c3)c2cc1OC [Tivozanib (AV-951)] + C=CCn1c(=O)c2cnc(Nc3ccc(N4CCN(C)CC4)cc3)nc2n1-c1cccc(C(C)(C)O)n1 [MK1775] | inactive: -0.22

Reformatted as comma-separated lines: part of the list above
SMILES,Z' of S-phase gammaH2AX difference (Z-score)
CC1(NC(=O)CBr)CCC(C(C)(C)NCC(O)COc2cccc3[nH]ccc23)CC1 (configuration not stated) [(?)-Pindobind] + C=CCn1c(=O)c2cnc(Nc3ccc(N4CCN(C)CC4)cc3)nc2n1-c1cccc(C(C)(C)O)n1 [MK1775],inactive: 0.286
COc1cc2nccc(Oc3ccc(NC(=O)Nc4cc(C)on4)c(Cl)c3)c2cc1OC [Tivozanib (AV-951)] + C=CCn1c(=O)c2cnc(Nc3ccc(N4CCN(C)CC4)cc3)nc2n1-c1cccc(C(C)(C)O)n1 [MK1775],inactive: -0.22
